According to patent US20250340911A1, “METHOD FOR PRODUCING FROM FATTY ALCOHOLS MONOMERS FOR PRODUCING VARIOUS SYNTHETIC RESINS” (priority 2022, published 2025):

Test system: recombinant strain for α,ω-carboxylation (Candida tropicalis Ct6)
Assay: α,ω-Carboxylation of dialkyl ether compounds by fermentation, 5-L fermentor, GC-MS
Type: cell-based
Details: 10 mL substrate in 2-L culture, pH 7.5, 30° C. (33° C. for diundecyl and didodecyl ether)

| SMILES | Conversion rate(%) 4 hours after substrate addition [%] | Conversion rate(%) 6 hours after substrate addition [%] |
| --- | --- | --- |
| CCCCCCCCCCCCOCCCCCCCCCCCC [Didodecyl ether, didodecyl ether] | 75.58 ± 3.00 | 100 |
| CCCCCCOCCCCCC [Dihexyl ether, dihexyl ether] | 54.54 ± 1.06 | 73.14 ± 0.55 |
| CCCCCOCCCCC [Dipentyl ether, dipentyl ether] | 44.80 ± 0.31 | 70.79 ± 0.23 |
| CCCCCCCCOCCCCCCCC [Dioctyl ether, dioctyl ether] | 90.17 ± 0.62 | 100 |
| CCCCCCCOCCCCCCC [Diheptyl ether, diheptyl ether] | 80.66 ± 4.89 | 100 |
| CCCCCCCCCCCOCCCCCCCCCCC [Diundecyl ether, diundecyl ether] | 97.31 ± 1.44 | 100 |
| CCCCCCCCCCOCCCCCCCCCC [Didecyl ether, didecyl ether] | 65.37 ± 1.35 | 76.24 ± 1.42 |
